Results from EP4714978A1 (Neukio Biotherapeutics (Shangai ) Co., Ltd., dated 2026).
These are yes or no findings as the source states them, for the method shown. Some results given as binding are weak or reduced against the parent protein; the word gives no strength. Tags and fused reporters may be left off the sequences shown.

Molecular target: T1, human DLL3 protein (human, UniProt Q9NYJ7 27-492, limits assumed)
T1 construct: Soluble human DLL3 protein used in BLI; also called Delta-like protein 3
T1 sequence (looked up): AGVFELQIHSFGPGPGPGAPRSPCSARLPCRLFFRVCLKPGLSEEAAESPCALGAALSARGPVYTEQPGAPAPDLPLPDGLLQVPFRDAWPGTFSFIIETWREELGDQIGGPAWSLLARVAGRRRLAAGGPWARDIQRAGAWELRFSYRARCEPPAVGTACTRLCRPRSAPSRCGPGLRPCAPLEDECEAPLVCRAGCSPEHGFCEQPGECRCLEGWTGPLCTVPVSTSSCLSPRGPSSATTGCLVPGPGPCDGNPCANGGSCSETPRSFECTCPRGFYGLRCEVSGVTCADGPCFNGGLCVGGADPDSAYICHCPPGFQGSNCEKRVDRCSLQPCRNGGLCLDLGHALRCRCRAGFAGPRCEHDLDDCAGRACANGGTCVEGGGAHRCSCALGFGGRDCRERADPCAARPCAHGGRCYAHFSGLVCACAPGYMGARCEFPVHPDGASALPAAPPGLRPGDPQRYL
Assay: BLI, comparison with AMG757 told in the discussion

binding: binds
B1: Ab.76 scFv-human IgG Fc (Fc fusion)
chain: EIVMTQSPATLSVSPGERATLSCRASQSVSSNLAWYRQKPGQAPRLFIYGAYTRATDIPARFSGSGSGTEFTLTISSLQSEDFAVYYCQQYNNWPFTFGPGTKVDIKGGGGSGGGGSGGGGSEVQMVESGGVLVQPGMSLRLSCAASGFTFDDYAMHWVRQPPGKGLEWVSVISWNSGSIGYADSVKGRFTISRDNAKNSLYLQMNSLRAEDTAFYYCAKDLEGGVMDFDYWGQGTLVTVSS
notes: not shown: human IgG Fc
